# Reference: PubChem BioAssay (NCATS)
# The shares of active, inactive and inconclusive entries below differ from those in the screen. Potencies of inconclusive entries are doubtful fits and often do not repeat. Activity calls are given as the source filed them. The call rests on the fitted dose curve; in most records, active means well fitted curve in the direction sought with a large enough effect; inconclusive means small, poorly fitted or top-dose-only effect, or another doubt; inactive means no such curve, though single readings can be large; an effect the other way counts as inactive or inconclusive.
# Assay: MultiTox-Fluor Cytotoxicity Assay - LYMP1-001 - Live Cells (AID 947)
# Details: LYMP1-001 lymphoblastoid cells, live-cell protease fluorescence viability; series mostly up to 92.2 µM
# Potency means the concentration at half of the fitted maximal effect.
row,Structure (SMILES),Potency
1,C=C(C)C(N)=O,"inconclusive: 25.1 µM [cytotoxic, full curve, poor fit]"
2,Cc1cc([N+](=O)[O-])ccc1N,"inconclusive: 10 µM [cytotoxic, full curve]"
3,Cc1ccc(C)c(N)c1,"inconclusive: 3.16 µM [cytotoxic, full curve, poor fit]"
4,c1c[nH]cn1,"inconclusive: 0.199 µM [cytotoxic, full curve]"
5,OCCO,"inconclusive: 0.199 µM [cytotoxic, full curve, poor fit]"

# Assay: MultiTox-Fluor Cytotoxicity Assay - LYMP1-002 - Dead Cells (AID 960); further: nearly all actives have a fitted effect of over 60% in size
# Details: LYMP1-002 lymphoblastoid cells, dead-cell protease fluorescence; series mostly up to 46.1 µM
# Outline: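 Human lymphoblastoid LYMP1-002 cells, 2500/well, treated 16 h at 37 C; dead-cell protease cleavage of bis-AAF-R110 read by fluorescence (485/520); normalized to DMSO and 15 uM tetraoctylammonium bromide; AC50 from Hill fit.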
row,Structure (SMILES),Potency
1,OCC(CBr)(CBr)CBr,"inconclusive: 7.94 µM [cytotoxic, full curve, poor fit]"
2,CCCCC(CC)COP(=O)(OCC(CC)CCCC)OCC(CC)CCCC (stereo unspecified),"inconclusive: 2.51 µM [cytotoxic, full curve, poor fit]"
3,O=c1n(CC2CO2)c(=O)n(CC2CO2)c(=O)n1CC1CO1 (stereo unspecified),active: 31.6 µM
4,O=C1OC(=O)c2c(Cl)c(Cl)c(Cl)c(Cl)c21,"inconclusive: 3.98 µM [cytotoxic, partial curve, poor fit]"
5,Cc1ccc(N)cc1[N+](=O)[O-],"inconclusive: 6.31 µM [cytotoxic, partial curve, poor fit]"
6,COc1ccc(N=[N+]([O-])c2ccc(OC)cc2)cc1,active: 25.1 µM
